# Assay results from paper PMC9163791.
# The chains behind the UniProt entries cited, without tags or fusion partners.
# UniProt P28482: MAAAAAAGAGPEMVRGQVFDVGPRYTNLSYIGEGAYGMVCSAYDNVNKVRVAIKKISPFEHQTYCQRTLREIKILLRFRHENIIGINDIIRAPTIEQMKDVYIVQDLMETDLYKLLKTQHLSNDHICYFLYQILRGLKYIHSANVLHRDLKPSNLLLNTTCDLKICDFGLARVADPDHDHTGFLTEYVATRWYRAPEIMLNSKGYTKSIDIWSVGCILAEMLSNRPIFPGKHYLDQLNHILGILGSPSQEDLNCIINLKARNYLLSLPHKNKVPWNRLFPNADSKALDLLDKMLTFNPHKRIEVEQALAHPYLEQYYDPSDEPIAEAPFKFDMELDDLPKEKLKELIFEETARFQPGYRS
# UniProt Q9HCE7: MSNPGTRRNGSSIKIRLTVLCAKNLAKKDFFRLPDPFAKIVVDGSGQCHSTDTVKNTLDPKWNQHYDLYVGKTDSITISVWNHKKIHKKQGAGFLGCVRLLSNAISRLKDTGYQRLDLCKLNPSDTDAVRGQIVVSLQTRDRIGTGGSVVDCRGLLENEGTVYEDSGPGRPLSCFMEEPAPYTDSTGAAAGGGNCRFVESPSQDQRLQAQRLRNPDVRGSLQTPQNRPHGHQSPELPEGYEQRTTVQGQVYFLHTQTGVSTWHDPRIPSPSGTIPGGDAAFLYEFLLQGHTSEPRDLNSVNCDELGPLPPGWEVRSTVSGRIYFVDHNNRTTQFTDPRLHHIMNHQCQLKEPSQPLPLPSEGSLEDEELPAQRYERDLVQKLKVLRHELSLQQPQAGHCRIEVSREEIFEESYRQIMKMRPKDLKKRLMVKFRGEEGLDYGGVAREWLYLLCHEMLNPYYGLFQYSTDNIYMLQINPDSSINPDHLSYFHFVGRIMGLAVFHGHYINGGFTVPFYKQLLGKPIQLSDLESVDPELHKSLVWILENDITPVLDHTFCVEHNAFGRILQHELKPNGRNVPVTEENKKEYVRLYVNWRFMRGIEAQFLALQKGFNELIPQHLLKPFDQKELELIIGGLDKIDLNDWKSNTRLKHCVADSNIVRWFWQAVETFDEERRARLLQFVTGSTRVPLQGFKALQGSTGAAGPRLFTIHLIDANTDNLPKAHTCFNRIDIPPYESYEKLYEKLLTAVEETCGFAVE
# Biological target: Flag-tagged ERK2 (human) (UniProt P28482)
# Assay: affinity purification with mass spectrometry; anti-Flag IP from MCF-7 cells transfected with Flag-ERK2, SDS-PAGE, Coomassie staining, the indicated band analysed by mass spectrometry
substance,measurement,value
endogenous Smurf1 (MCF-7) (from UniProt Q9HCE7 1-757),binding,binds

# No constants are given. Whether binding was seen depends on the method and setting. In cells and extracts the contact can be indirect. These calls come from enrichment with a bait or labelling near it, and not all partners need be listed.
